# Measurements published in the supplement of paper PMC4604168 (melanoma cell lines).
# The list shows a part of the results. Many values rest on one well or one pass, so single values are uncertain.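 Cells were imaged in 1,536-well plates, and nuclei stained with an antibody against cleaved PARP were counted against all DNA-stained nuclei to give the apoptosis fraction. Screening doses were chosen to leave most cells alive, and resting and induced cleaved-PARP levels differ strongly between cell lines.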
# Columns and labels:
# Assay in all cases: cleaved PARP positive nuclei fraction relative to DMSO control; melanoma cells; higher = more apoptosis
# Conditions in all cases: library dose: low library concentration; 72 h
# [1] = system: 501Mel
# [2] = system: A101D
# [3] = system: A2058
# [4] = system: A375
# [5] = system: C32
# [6] = system: CBRC013 (line from a melanoma biopsy)
# [7] = system: CBRC014 (line from a melanoma biopsy)
# [8] = system: CBRC016 (line from a melanoma biopsy)
# [9] = system: CBRC017 (line from a melanoma biopsy)
# [10] = system: CBRC034 (line from a melanoma biopsy)
# [11] = system: COLO792
# [12] = system: COLO800
# [13] = system: COLO829
# [14] = system: G361
# [15] = system: IPC-298
# [16] = system: IST-MEL1
# [17] = system: LB2518-MEL
# [18] = system: LOXIMVI
Structure (SMILES),cleaved PARP positive nuclei fraction [1] [%],cleaved PARP positive nuclei fraction [2] [%],cleaved PARP positive nuclei fraction [3] [%],cleaved PARP positive nuclei fraction [4] [%],cleaved PARP positive nuclei fraction [5] [%],cleaved PARP positive nuclei fraction [6] [%],cleaved PARP positive nuclei fraction [7] [%],cleaved PARP positive nuclei fraction [8] [%],cleaved PARP positive nuclei fraction [9] [%],cleaved PARP positive nuclei fraction [10] [%],cleaved PARP positive nuclei fraction [11] [%],cleaved PARP positive nuclei fraction [12] [%],cleaved PARP positive nuclei fraction [13] [%],cleaved PARP positive nuclei fraction [14] [%],cleaved PARP positive nuclei fraction [15] [%],cleaved PARP positive nuclei fraction [16] [%],cleaved PARP positive nuclei fraction [17] [%],cleaved PARP positive nuclei fraction [18] [%]
"COCC[n+]1c2c(n(Cc3cnccn3)c1C)C(=O)c1ccccc1C2=O + Cc1cc([N+](=O)[O-])ccc1NS(=O)(=O)c1cc(Cl)ccc1Cl [FH535] (first compound 0.0004 µM, partner dose 1 µM)",71.9,62.9,102,308,87.3,193,177,1880,744,795,74.6,148,58.3,88.6,65.9,632,89.9,41.6
"O=C(Nc1cccc(Cl)c1)Nc1ncc(CCNc2ncnc3ccsc23)s1 + CCN(CC)CCCCNc1ncc2cc(-c3cc(OC)cc(OC)c3)c(NC(=O)NC(C)(C)C)nc2n1 [PD173074] (first compound 0.0008 µM, partner dose 0.1 µM)",169,146,30.9,144,133,54.4,104,81.5,90.8,68.8,119,228,65.1,49.5,78,30.5,185,31.2
"Nc1cccc2c1CN(C1CCC(=O)NC1=O)C2=O (centres undefined) [lenalidomide] + Oc1cc(-c2nc(-c3ccccc3)[nH]c2-c2ccncc2)ccc1Cl [L779450] (first compound 1 µM, partner dose 0.2 µM)",91.4,120,181,65.1,56.9,153,95.5,74.7,101,81.9,118,197,82,183,31.7,57.8,71.4,39.9
"OCCn1cc(-c2cnc3nnn(Cc4ccc5ncccc5c4)c3n2)cn1 + O=S(=O)(c1ccccc1)N(CC(F)(F)F)c1ccc(C(O)(C(F)(F)F)C(F)(F)F)cc1 [T0901317] (first compound 1 µM, partner dose 1.4 µM)",40.8,59.4,67.3,80.8,39.8,373,78.2,39.1,89.4,47,86.7,104,155,32.7,58.4,55.1,95.3,19.7
"O=C(CCCCCCC(=O)Nc1ccccc1)NO [vorinostat] + Cn1cc(/C=C2\C(=O)Nc3cccnc32)c2ccccc21 [GW441756] (first compound 0.08 µM, partner dose 0.4 µM)",59,107,920,81.4,200,61.9,90.6,97.8,107,53.3,58,128,99.2,95.7,84.8,45,125,45.9
"C=CCn1c(=O)c2cnc(Nc3ccc(N4CCN(C)CC4)cc3)nc2n1-c1cccc(C(C)(C)O)n1 + c1cc(-c2cnn3cc(-c4ccc(OCCN5CCCCC5)cc4)cnc23)ccn1 [Dorsomorphin] (first compound 0.02 µM, partner dose 0.4 µM)",97.6,308,126,151,113,50,109,95.3,109,46.9,162,130,80.5,150,38.5,116,211,37.6
"NC(=O)Nc1cc(-c2cccc(F)c2)sc1C(=O)N[C@H]1CCCNC1 + Cc1cc([N+](=O)[O-])ccc1NS(=O)(=O)c1cc(Cl)ccc1Cl [FH535] (first compound 0.02 µM, partner dose 1 µM)",62.7,253,37.2,188,199,141,131,2830,816,1550,63.8,67.7,85.9,256,47.6,84.6,117,36.8
"O=C(CCCCCCC(=O)Nc1ccccc1)NO [vorinostat] + O=C1NC(=O)/C(=C/c2ccc(-c3ccc(F)cc3O)o2)S1 [AS252424] (first compound 0.08 µM, partner dose 1 µM)",76.9,114,35.6,43.3,117,252,221,142,118,92.8,60,128,103,106,170,88.1,94.3,97.5
"Cn1nnc2c(C(N)=O)ncn2c1=O [temozolomide] + O=C(O)C(=O)Nc1sc2c(c1C(=O)O)CCNC2 [TCS401] (first compound 2 µM, partner dose 1.66667 µM)",74.7,101,112,122,84,38.4,99.4,14.6,67,138,68.8,47.8,132,121,47.7,58.8,76.8,84.4
"Cc1cc(N2CCOCC2)cc2[nH]c(-c3c(NC[C@@H](O)c4cccc(Cl)c4)cc[nH]c3=O)nc12 + CCCCCCCCCCCC1=C(O)C(=O)C=C(O)C1=O [Embelin] (first compound 0.2 µM, partner dose 1.2 µM)",86.2,165,50.6,82.9,106,273,85.9,127,83.4,91.5,68.3,288,129,106,86.4,27.6,39.1,76.7
"COc1cc(Nc2ncc(F)c(Nc3ccc4c(n3)NC(=O)C(C)(C)O4)n2)cc(OC)c1OC [Tamatinib] + CCCCCCCCCCCC1=C(O)C(=O)C=C(O)C1=O [Embelin] (first compound 0.4 µM, partner dose 1.2 µM)",79.3,199,128,35.5,82.4,550,87.1,19.7,87.1,184,148,184,129,105,40.2,102,97.6,38.3
"Nc1cccc2c1CN(C1CCC(=O)NC1=O)C2=O (centres undefined) [lenalidomide] + O=C(Nc1ccccc1)c1cc([N+](=O)[O-])ccc1Cl [GW9662] (first compound 1 µM, partner dose 2 µM)",72.4,64.1,65.2,365,53.9,87,96.6,62.5,86,85.2,107,110,110,308,49.2,117,96.9,120
"COCC[n+]1c2c(n(Cc3cnccn3)c1C)C(=O)c1ccccc1C2=O + N#Cc1c(O)c2c(-c3ccc(-c4ccccc4O)cc3)csc2[nH]c1=O [A769662] (first compound 0.0004 µM, partner dose 2 µM)",227,114,67.8,191,92.8,76.8,94.2,53.5,57.5,80.7,92.7,28.1,104,80.9,118,51.5,181,168
"C#Cc1cccc(Nc2ncnc3cc(OCCOC)c(OCCOC)cc23)c1 [erlotinib] + Cn1cc(/C=C2\C(=O)Nc3cccnc32)c2ccccc21 [GW441756] (first compound 0.8 µM, partner dose 0.4 µM)",98.5,181,135,136,41.7,145,95.4,49.6,94.6,71.8,169,130,81.1,110,40.3,45.5,80.9,37.7
"CC(C)(C)c1cnc(CSc2cnc(NC(=O)C3CCNCC3)s2)o1 + COc1ccc2c(c1)CCC1C2CCC2(C)C(NCCCCCCN3C(=O)C=CC3=O)CCC12 [U73122] (first compound 0.01 µM, partner dose 0.4 µM)",63.8,155,30.5,440,97.6,46.1,119,138,81.4,63.1,104,152,62.8,158,195,175,87,41.4
"Cc1ccc(NC(=O)c2cccc(N(C)C)c2)cc1NC(=O)c1ccc(O)cc1 + CCN(CC)CCCCNc1ncc2cc(-c3cc(OC)cc(OC)c3)c(NC(=O)NC(C)(C)C)nc2n1 [PD173074] (first compound 2 µM, partner dose 0.1 µM)",107,80.6,123,156,178,174,127,90.5,86.6,107,111,89.4,111,69.1,143,80.5,98.7,27.4
"COCC[n+]1c2c(n(Cc3cnccn3)c1C)C(=O)c1ccccc1C2=O + COC(=O)c1sccc1S(=O)(=O)Nc1ccc(Nc2ccccc2)cc1OC [GSK0660] (first compound 0.0004 µM, partner dose 1 µM)",47.2,179,374,351,56.9,302,99.7,109,305,44.5,96.9,252,121,97,151,117,278,80
"NC(=O)Nc1cc(-c2cccc(F)c2)sc1C(=O)N[C@H]1CCCNC1 + Cn1cc(/C=C2\C(=O)Nc3cccnc32)c2ccccc21 [GW441756] (first compound 0.02 µM, partner dose 0.4 µM)",74.9,137,120,614,67.9,107,89.5,114,66.4,73.8,96.6,161,54.7,50,60.5,99.8,165,60.6

# Some entries already given, limited to cleaved PARP positive nuclei fraction [17] [%].
Structure (SMILES),cleaved PARP positive nuclei fraction [17] [%]
"Nc1cccc2c1CN(C1CCC(=O)NC1=O)C2=O (centres undefined) [lenalidomide] + O=C(Nc1ccccc1)c1cc([N+](=O)[O-])ccc1Cl [GW9662] (first compound 1 µM, partner dose 2 µM)",96.9
"COCC[n+]1c2c(n(Cc3cnccn3)c1C)C(=O)c1ccccc1C2=O + N#Cc1c(O)c2c(-c3ccc(-c4ccccc4O)cc3)csc2[nH]c1=O [A769662] (first compound 0.0004 µM, partner dose 2 µM)",181
